The values that follow come from publication doi:10.1101/2020.03.14.989954.

Protein sequences, listed by entry. Tags and fused reporters are not part of them.
UniProt Q92963: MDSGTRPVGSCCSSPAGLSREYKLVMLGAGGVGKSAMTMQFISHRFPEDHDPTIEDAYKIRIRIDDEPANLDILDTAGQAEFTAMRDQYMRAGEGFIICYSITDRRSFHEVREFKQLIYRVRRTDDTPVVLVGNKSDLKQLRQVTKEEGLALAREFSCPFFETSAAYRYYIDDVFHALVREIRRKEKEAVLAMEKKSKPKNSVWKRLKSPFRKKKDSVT

What all share (assay): co-IP
One assay concerns the target T1, LZTR1 R810W (UniProt Q8N653).
T1 sequence: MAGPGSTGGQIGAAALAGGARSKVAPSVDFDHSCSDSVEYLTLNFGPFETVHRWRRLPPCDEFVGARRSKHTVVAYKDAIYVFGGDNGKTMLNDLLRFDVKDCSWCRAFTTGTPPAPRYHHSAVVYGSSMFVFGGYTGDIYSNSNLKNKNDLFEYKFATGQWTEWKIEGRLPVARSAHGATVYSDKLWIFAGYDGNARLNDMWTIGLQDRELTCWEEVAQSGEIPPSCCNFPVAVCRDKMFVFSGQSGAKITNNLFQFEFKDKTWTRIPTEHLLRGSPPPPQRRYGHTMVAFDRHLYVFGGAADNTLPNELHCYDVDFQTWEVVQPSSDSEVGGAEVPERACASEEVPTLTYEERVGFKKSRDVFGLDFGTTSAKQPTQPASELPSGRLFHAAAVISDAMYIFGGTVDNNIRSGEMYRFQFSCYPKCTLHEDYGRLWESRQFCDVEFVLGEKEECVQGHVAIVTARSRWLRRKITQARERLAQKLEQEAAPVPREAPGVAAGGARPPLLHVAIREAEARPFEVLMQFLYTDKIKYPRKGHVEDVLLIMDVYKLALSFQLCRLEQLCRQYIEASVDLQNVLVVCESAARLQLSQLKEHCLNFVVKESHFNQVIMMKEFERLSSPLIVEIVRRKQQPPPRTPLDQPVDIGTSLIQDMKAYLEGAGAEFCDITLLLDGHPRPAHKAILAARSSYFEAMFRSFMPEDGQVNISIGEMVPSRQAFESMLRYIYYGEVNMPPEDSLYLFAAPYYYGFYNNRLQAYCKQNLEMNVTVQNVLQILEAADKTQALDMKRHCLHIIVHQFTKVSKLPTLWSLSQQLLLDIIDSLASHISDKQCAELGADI

The target in another assay is T2, KLHL26 (UniProt Q53HC5).
T2 sequence: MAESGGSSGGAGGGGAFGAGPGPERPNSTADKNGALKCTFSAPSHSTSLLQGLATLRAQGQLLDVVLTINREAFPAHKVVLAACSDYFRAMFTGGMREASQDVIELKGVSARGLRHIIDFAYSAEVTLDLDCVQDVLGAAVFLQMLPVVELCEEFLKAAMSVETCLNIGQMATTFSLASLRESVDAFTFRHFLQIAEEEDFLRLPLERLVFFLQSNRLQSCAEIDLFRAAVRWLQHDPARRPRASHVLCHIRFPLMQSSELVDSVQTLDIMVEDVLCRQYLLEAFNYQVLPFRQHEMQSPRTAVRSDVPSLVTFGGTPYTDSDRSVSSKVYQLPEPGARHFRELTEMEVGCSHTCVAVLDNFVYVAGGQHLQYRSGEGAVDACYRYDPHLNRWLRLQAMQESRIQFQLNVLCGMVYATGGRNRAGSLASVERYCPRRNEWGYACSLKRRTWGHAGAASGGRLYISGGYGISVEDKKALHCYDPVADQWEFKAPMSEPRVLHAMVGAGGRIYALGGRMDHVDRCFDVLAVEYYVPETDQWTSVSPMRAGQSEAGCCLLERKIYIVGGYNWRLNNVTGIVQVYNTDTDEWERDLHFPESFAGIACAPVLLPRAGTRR

The next assay deals with T3, KLHL9 (UniProt Q9P2J3).
T3 sequence: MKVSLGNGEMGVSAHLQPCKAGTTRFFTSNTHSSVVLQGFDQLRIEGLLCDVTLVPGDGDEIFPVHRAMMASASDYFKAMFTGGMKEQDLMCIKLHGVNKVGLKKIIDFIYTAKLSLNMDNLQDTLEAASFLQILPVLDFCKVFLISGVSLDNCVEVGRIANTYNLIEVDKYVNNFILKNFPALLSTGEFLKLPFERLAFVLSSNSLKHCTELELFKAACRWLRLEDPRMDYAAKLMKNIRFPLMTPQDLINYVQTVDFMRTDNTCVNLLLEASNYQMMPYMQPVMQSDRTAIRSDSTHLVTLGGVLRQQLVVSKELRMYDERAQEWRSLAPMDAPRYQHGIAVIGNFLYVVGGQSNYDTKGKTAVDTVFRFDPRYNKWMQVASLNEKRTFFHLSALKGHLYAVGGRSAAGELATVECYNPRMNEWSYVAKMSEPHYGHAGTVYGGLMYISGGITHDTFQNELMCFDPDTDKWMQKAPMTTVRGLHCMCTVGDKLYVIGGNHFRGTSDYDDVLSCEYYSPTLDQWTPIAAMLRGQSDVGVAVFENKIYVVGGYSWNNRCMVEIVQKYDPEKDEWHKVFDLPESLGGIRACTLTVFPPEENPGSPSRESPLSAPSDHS

Results are given in words; binding and its absence hold for the method and conditions named. Binding seen in cells or lysates may run through a third protein. Some entries that bind do so weakly or less than the wild type.

In the case of “RIT1, wild type, full length (Figs 1H, 3B, 3G, 4B) (from UniProt Q92963 1-219)”, the binding entry is given as “binds” with LZTR1 R810W, “no binding” with KLHL26 and “no binding” with KLHL9.
